According to patent US20080293674A1, “Azinyl Imidazoazine and Azinyl Carboxamide” (priority 2004, published 2008):
Some results were stated once for a whole list of compounds, not compound by compound.

Tested on: Nilaparvata lugens
Experiment: Nilaparvata lugens test (hydroponic treatment)
Assay type: in vivo
Settings: after 7 days at a concentration of 100 g/ha

Structure (SMILES)	death rate
FC(F)(F)c1ccncc1-c1nc(Br)c2ccccn12 [Example 3, 1-bromo-3-(4-trifluoromethylpyridin-3-yl)-imidazo[1,5-a]pyridine]	at least 70%
FC(F)(F)c1ccncc1-c1nc(Cl)c2ccccn12 [Example 4, 1-chloro-3-(4-trifluoromethylpyridin-3-yl)-imidazo[1,5-a]pyridine]	at least 70%
FC(F)(F)c1ccncc1-c1nc(CN(Cc2ccccc2)Cc2ccccc2)c2ccccn12 [Example 124, 1-(dibenzylaminomethyl)-3-(4-trifluoromethylpyridin-3-yl)-imidazo[1,5-a]pyridine]	at least 70%
